Experimental findings from US12473328 (dated 2025) are described below.

A short description of this series: peptide synthesis. The note with it: for cyclisation yield / step yield / oxidative folding yield: yield of modification; for crude HPLC purity / difficulty met: whole synthesis.
Where [1] appears, read: cyclisation step, bicyclic, sequence written open.
Where [2] appears, read: oxidative folding step, several disulfide bridges, sequence written open.
[3] abbreviates: oxidative folding step, one disulfide bridge, sequence written open.
[4] abbreviates: cyclisation step, thioether ring, sequence written open.

Marks after values point to notes of the source that are not given here. The star is where a group is joined. Palmitoyl = CCCCCCCCCCCCCCCC(=O)*; Myristoyl = CCCCCCCCCCCCCC(=O)*

Turning to H-ACREGFLRCLHRPTVCNG-H2, under setting [1], the “purity (crude or final not stated)” value is 67% and the cyclisation yield is recorded as greater than 99%. Further, the “crude HPLC purity” value (UV210, bicyclic, sequence written open) amounted to 60%.

As to H-AK(Palm-Glu-OH)EFIAWLVRGRG-NH2, for the setting “lipidation step”, the “purity (crude or final not stated)” value is 83% and the step yield is recorded as 95%. Also, under “UV210”, the “crude HPLC purity” value was 62%.

In the case of H-CCEYCCNPACTGCY-NH2, under setting [2], the “final purity (method not given)” value is on record as 10% and the oxidative folding yield is greater than 75%.

Consider H-CYFQNCPRG-NH2, for which, under setting [3], the “final purity (method not given)” value was 85%, the “purity (crude or final not stated)” value was determined as 85% and the oxidative folding yield is on record as greater than 95%. For the same substance, the “crude HPLC purity” value (UV210, one disulfide bridge, sequence written open) is 60%*.

“H-HAEGTFTSDVSSYLEGQAAK(Palm-Glu-OH)EFIAWLVRGRG-OH”: where the note is “lipidation step”, the “purity (crude or final not stated)” value amounted to 72% and the step yield is reported as greater than 99%. Besides, the “crude HPLC purity” value (UV210) is reported as 7%.

For “H-HAEGTFTSDVSSYLEGQAAK(Palm-γE-OH)EFIAWLVRGRG-NH2”, for the setting “lipidation step”, the “purity (crude or final not stated)” value is 54% and the step yield turned out to be 88%. Further, the “crude HPLC purity” value (UV210) came to 30%.

For the substance “H-HAibFGTFTSDVSSYLEGQAAK(CO2H-Ste-Glu(aeea-aeea-OH)-OH)EFIAWLVRGRG-OH”, where the note is “lipidation step”, the “purity (crude or final not stated)” value came to 67% and the step yield is on record as greater than 99%. Besides, the “crude HPLC purity” value (UV210) is on record as 6%.

For the substance “H-KCNTATCATQRLANFLVHSSNFGPILPPTNVGSNTY-NH2”, under setting [3], the “final purity (method not given)” value amounted to 10% and the oxidative folding yield was greater than 99%. In addition, the difficulty met result (one disulfide bridge, sequence written open) is “traces*”.

H-KEKFSINSEDNNGC(C2H4O-Palm)-NH2 came in with a step yield (lipidation step) of 46%. Also, under “UV210”, the “crude HPLC purity” value amounted to 55%*.

In turn, H-KEKFSINSEDNNGC(C2H40-Palm)-NH2 came in with a step yield (lipidation step) greater than 98%. Moreover, under “UV210”, the “crude HPLC purity” value was found to be 55%*.

For the substance H-KEKFSINSEDNNGC(C3H5O2-diPalm)-NH2, under “UV210”, the “crude HPLC purity” value came to 67%*.

H-KKKKSC(C2H4O-Palm)-NH2 displayed a step yield (lipidation step) of 39%. In addition, the “crude HPLC purity” value (UV210) is recorded as 67%*.

Take H-VRVPGCAHCADSLY-NH2: under setting [4], the “purity (crude or final not stated)” value is on record as 74% and the cyclisation yield is greater than 99%. Besides, the “crude HPLC purity” value (UV210, thioether ring, sequence written open) worked out at 56%.

On to “Myristoyl-GGKWSK(Myristoyl)SSVIGWPAVRER-NH2”, for which the difficulty met entry is listed as “traces*”. Where the note is “lipidation step”, the “purity (crude or final not stated)” value was 3% and the step yield is listed as greater than 99%.

As to “Palmitoyl-GGKWSK(Palmitoyl)SSVIGWPAVRER-NH2”, the difficulty met entry was “traces*”. For the same substance, where the note is “lipidation step”, the “purity (crude or final not stated)” value is 6% and the step yield was greater than 99%.

As to “Palmitoyl-SGGK(Palmitoyl)WSK(Palmitoyl)SSVIGWPAVRER-NH2”, the difficulty met entry is on record as “traces*”. Moreover, where the note is “lipidation step”, the “purity (crude or final not stated)” value is 53% and the step yield is greater than 99%.
